According to patent US20260115185A1, “QUINOLINE DERIVATIVES WHICH ACT AS KAPPA-OPIOID RECEPTOR ANTAGONISTS” (The Scripps Research Institute, priority 2023, published 2026):
Structures were worked out from names or drawings and are uncertain.

Sequences of proteins named here, by UniProt entry; tags and fusion partners are left off.
UniProt P35372, whole entry: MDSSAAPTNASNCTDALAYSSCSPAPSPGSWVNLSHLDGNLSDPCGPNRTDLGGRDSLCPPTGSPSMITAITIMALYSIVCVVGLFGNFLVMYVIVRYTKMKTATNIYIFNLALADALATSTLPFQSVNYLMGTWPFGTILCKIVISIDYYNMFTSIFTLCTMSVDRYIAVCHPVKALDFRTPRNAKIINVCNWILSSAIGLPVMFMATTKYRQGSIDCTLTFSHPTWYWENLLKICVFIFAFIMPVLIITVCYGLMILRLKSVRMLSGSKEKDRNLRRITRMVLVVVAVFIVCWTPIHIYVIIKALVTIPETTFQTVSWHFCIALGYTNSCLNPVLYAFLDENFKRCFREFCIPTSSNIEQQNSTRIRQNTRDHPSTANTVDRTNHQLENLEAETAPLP
UniProt P41145, whole entry: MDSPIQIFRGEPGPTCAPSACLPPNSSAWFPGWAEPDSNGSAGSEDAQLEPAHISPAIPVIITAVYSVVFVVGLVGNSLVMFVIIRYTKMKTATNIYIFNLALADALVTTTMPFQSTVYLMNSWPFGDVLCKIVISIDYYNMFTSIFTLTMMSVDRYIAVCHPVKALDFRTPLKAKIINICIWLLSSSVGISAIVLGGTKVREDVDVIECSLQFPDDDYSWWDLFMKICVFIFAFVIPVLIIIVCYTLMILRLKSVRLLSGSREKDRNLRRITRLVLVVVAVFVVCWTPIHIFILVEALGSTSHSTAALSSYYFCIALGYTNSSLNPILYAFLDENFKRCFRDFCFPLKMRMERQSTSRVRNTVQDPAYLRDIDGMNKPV

What was measured:
[1] = target: mu opioid receptor (MOR) (Homo sapiens, UniProt P35372); experiment: OPRMu1 Discover X β-arrestin Assay, antagonist mode (U2OS cells, DAMGO EC80 challenge); type: cell-based; details: read-out: MOR IC50
[2] = target: kappa opioid receptor (KOR) (Homo sapiens, UniProt P41145); experiment: OPRKappa 1 Tango B-Arrestin Assay, antagonist mode (Tango OPRK1-bla U2OS cells, U50488 EC80 challenge); type: cell-based; details: for Selectivity (MOR/KOR): Kappa selectivity, MOR IC50 / KOR IC50; for IC50: read-out: KOR IC50, antagonist mode, Tango OPRK1-bla U2OS cells, 6 nM U50488 challenge

Row | SMILES | IC50 [1] | Selectivity (MOR/KOR) [2] | IC50 [2]
1 | CCc1cc(-c2ccn(C)n2)c2nc(N3CCNC[C@H]3C)c(-c3ccn(C)n3)c(C)c2c1 | > 1000 nM | ++ (between 10- and 100-fold selectivity) | > 100 nM
2 | CCc1cc(F)c2nc(N3CCN(C4CCOCC4)C[C@H]3C)c(-c3nc(C)no3)c(C)c2c1 | > 1000 nM | +++ (between 100- to 1000-fold selective) | < 1 nM
